Measured values taken from paper PMC9468174.
Results are given in words; binding and its absence hold for the method and conditions named. In cells and extracts the contact can be indirect. Here binding means that the protein was enriched with, or labelled near, the bait; the list need not be complete.

Amino acid sequences for entries named in this document (tags omitted).
UniProt Q12923: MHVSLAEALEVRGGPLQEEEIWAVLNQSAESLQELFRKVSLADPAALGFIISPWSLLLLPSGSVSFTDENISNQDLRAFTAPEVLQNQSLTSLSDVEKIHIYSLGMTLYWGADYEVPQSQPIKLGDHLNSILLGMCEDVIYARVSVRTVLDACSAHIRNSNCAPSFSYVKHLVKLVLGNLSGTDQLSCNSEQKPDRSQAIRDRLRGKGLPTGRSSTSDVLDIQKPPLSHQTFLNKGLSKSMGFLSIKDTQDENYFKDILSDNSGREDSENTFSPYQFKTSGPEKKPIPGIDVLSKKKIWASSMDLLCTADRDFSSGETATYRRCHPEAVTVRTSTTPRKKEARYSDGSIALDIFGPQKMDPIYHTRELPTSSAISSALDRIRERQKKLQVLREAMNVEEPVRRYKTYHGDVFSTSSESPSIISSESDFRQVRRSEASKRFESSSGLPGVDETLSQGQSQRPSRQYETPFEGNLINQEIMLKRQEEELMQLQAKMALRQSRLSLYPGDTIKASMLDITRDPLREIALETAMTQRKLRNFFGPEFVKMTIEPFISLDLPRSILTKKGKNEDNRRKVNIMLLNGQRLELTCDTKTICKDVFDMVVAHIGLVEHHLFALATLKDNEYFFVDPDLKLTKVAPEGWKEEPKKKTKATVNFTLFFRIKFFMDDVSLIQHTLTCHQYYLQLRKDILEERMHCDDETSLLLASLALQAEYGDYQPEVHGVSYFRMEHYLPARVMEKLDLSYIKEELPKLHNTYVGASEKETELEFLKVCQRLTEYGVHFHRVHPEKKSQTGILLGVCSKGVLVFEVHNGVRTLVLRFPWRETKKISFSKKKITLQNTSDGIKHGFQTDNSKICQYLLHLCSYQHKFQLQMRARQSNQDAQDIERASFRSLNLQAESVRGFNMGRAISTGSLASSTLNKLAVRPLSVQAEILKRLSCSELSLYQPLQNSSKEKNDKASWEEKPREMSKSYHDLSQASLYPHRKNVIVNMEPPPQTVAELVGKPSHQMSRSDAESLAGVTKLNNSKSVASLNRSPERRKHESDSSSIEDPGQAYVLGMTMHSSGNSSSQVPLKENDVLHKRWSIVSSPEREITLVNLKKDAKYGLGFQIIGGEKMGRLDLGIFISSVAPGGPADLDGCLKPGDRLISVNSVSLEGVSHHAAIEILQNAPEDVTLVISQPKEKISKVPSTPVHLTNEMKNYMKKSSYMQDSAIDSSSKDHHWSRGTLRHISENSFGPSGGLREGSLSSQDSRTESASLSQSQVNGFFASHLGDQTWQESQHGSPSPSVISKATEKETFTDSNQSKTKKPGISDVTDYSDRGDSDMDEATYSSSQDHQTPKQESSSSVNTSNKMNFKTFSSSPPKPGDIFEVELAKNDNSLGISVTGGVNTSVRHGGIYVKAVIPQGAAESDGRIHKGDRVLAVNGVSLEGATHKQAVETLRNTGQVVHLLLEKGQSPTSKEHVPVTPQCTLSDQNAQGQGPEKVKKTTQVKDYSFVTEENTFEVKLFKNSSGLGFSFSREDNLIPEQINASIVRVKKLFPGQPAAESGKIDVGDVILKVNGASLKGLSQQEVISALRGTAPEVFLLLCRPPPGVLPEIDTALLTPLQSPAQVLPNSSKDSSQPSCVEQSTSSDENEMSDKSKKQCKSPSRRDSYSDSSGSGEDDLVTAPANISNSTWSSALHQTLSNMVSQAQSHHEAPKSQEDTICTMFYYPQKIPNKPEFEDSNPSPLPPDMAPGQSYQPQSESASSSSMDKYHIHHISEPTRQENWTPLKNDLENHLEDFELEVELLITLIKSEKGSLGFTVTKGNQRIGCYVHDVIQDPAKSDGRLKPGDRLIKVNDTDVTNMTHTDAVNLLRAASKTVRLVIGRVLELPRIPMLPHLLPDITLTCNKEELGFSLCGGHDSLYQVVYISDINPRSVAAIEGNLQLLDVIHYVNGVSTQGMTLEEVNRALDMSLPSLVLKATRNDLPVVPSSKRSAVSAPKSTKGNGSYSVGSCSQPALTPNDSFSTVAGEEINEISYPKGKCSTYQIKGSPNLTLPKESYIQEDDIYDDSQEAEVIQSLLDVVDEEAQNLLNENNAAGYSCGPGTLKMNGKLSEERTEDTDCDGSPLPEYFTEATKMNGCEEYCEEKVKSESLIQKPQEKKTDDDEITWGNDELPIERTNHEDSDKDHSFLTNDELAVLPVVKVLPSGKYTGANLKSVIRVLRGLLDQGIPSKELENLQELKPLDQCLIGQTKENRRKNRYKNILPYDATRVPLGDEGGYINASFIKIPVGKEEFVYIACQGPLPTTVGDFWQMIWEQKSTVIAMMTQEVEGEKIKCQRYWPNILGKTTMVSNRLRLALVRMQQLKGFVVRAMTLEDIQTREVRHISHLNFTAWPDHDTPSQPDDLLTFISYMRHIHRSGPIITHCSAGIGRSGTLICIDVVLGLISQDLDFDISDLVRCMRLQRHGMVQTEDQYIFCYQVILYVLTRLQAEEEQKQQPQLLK
UniProt O00560: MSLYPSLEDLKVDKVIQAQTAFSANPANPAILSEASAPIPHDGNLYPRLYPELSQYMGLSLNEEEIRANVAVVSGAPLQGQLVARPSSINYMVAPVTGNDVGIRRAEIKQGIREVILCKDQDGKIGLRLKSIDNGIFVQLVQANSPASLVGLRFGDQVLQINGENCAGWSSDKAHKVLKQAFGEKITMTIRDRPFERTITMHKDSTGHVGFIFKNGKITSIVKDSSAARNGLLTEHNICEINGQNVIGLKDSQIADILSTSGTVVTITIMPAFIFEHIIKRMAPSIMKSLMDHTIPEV

Target: PTPN13 (human (endogenous in iRPE cells derived from hUCMSCs)) (UniProt Q12923)
Experiment: affinity purification with mass spectrometry; Co-IP from iRPE cell lysate with anti-PTPN13 antibody on Protein A + G magnetic beads, 4 °C overnight; eluate digested with trypsin, Nano-HPLC and Q Exactive plus MS/MS

binding: binds
Substance: syntenin1 (from UniProt O00560 1-298)
